{"sequences": {"note": "Sequences of proteins named here, by UniProt entry; tags and fusion partners are left off. A change or cut given only in a name is not applied to a line headed by its entry.", "UniProt P16220": "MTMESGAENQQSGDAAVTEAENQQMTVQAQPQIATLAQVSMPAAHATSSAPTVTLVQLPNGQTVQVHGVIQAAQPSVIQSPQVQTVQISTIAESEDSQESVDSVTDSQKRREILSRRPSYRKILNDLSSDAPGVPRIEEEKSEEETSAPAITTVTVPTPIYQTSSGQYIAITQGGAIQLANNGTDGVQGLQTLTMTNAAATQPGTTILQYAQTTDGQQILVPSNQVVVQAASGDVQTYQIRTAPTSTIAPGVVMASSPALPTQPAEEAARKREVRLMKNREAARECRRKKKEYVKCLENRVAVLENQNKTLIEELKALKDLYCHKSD", "UniProt P63151": "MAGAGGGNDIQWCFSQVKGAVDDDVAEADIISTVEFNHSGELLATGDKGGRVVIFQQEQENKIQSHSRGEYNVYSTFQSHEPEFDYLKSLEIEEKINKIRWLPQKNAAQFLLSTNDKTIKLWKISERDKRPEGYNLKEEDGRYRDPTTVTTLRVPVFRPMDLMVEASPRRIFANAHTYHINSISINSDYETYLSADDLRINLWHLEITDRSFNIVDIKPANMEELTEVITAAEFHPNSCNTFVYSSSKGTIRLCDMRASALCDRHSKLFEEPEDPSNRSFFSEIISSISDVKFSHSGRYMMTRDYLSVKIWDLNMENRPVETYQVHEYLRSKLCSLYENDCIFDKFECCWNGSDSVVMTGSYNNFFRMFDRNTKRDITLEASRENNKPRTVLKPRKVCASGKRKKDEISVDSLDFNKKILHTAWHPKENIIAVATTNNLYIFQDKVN"}, "source": "paper PMC8294589", "biological_target": "GST-CREB (99–159) (UniProt P16220)", "assay": "pull-down; 12 μg GST-CREB (or GST-ATF1) on 5 μl glutathione resin; 100 μg Bα or B56γ1 (holoenzyme in Fig. 2C) in 50 μl of 25 mM Tris pH 8.0, 150 mM NaCl, 2 mM DTT, 1 mg/ml BSA, 30 min; washes with 0.1% Triton X-100; SDS-PAGE, Coomassie blue; both purified", "note": "Results are given in words; binding and its absence hold for the method and conditions named.", "data": [{"substance": "B55α subunit of PP2A (from UniProt P63151 1-447)", "values": [{"measurement": "binding", "value": "no binding (tested: 100 μg in 50 μl)"}]}]}
